PubChem BioAssay AID1508597, Cure First, 2020
Shown is a random part of the about 2,100 reagents, under one of the conditions tested. 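Calls flag viability under 80% in either arm, not effects specific to rucaparib; the reference for percent is not stated.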 Some reagents were tested in more than one well and are listed for each. Not given: the 100% reference.

Aim: 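Survival screen with siRNA in ovarian cancer cells derived from patients, with or without rucaparib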 (primary screen)
Cells: human ovarian carcinoma lines grown from tumours: OCI-P5x (papillary serous) and OCI-C5x (clear cell)
Reagent: siRNA pool against human genes, 1.25 pmol siRNA per well
Time to read-out: 72 h or 96 h, depending on the cell culture
Challenge: rucaparib 20 µM (about IC30) or vehicle, present until read-out
Rucaparib or vehicle: Rucaparib
Cell line: OCI-C5x (clear cell)
Measured: 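ATP luminescence measured at 72 or 96 h according to the culture, then normalised and expressed as percent viability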
Scale: viability, normalised: higher = more viable cells remaining
Call rule: 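Active when normalised viability falls below 80 percent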
Calls: active = viability under 80%; inactive = viability 80% or more

CCNK (cyclin K) [SID405526449], technical replicate 1 → viability, normalised (%): 46.2; Call: active
CCNK (cyclin K) [SID405526449], technical replicate 2 → viability, normalised (%): 57.6; Call: active
CCNK (cyclin K) [SID405526449], technical replicate 3 → viability, normalised (%): 45.8; Call: active
SMYD1 (SET and MYND domain containing 1) [SID405527346], technical replicate 1 → viability, normalised (%): 56.2; Call: active
SMYD1 (SET and MYND domain containing 1) [SID405527346], technical replicate 2 → viability, normalised (%): 39.4; Call: active
SMYD1 (SET and MYND domain containing 1) [SID405527346], technical replicate 3 → viability, normalised (%): 62.3; Call: active
ETNK2 (ethanolamine kinase 2) [SID405527731], technical replicate 1 → viability, normalised (%): 53.4; Call: active
ETNK2 (ethanolamine kinase 2) [SID405527731], technical replicate 2 → viability, normalised (%): 46.1; Call: active
ETNK2 (ethanolamine kinase 2) [SID405527731], technical replicate 3 → viability, normalised (%): 38.1; Call: active
DGKB (diacylglycerol kinase beta) [SID405527491], technical replicate 1 → viability, normalised (%): 39.9; Call: active
DGKB (diacylglycerol kinase beta) [SID405527491], technical replicate 2 → viability, normalised (%): 39.6; Call: active
DGKB (diacylglycerol kinase beta) [SID405527491], technical replicate 3 → viability, normalised (%): 46.2; Call: active

Targets above whose target name starts with E or e:
ETNK2 (ethanolamine kinase 2) [SID405527731], technical replicate 1 → viability, normalised (%): 53.4; Call: active
ETNK2 (ethanolamine kinase 2) [SID405527731], technical replicate 2 → viability, normalised (%): 46.1; Call: active
ETNK2 (ethanolamine kinase 2) [SID405527731], technical replicate 3 → viability, normalised (%): 38.1; Call: active

More results follow:
RNF8 (ring finger protein 8) [SID405527256], technical replicate 1 → viability, normalised (%): 40.7; Call: active
RNF8 (ring finger protein 8) [SID405527256], technical replicate 1 → viability, normalised (%): 45.5; Call: active
RNF8 (ring finger protein 8) [SID405527256], technical replicate 2 → viability, normalised (%): 44.7; Call: active
RNF8 (ring finger protein 8) [SID405527256], technical replicate 2 → viability, normalised (%): 38.2; Call: active
RNF8 (ring finger protein 8) [SID405527256], technical replicate 3 → viability, normalised (%): 55.5; Call: active
RNF8 (ring finger protein 8) [SID405527256], technical replicate 3 → viability, normalised (%): 36.1; Call: active
TFAP2A (transcription factor AP-2 alpha) [SID405528451], technical replicate 1 → viability, normalised (%): 62; Call: active
TFAP2A (transcription factor AP-2 alpha) [SID405528451], technical replicate 2 → viability, normalised (%): 72; Call: active
TFAP2A (transcription factor AP-2 alpha) [SID405528451], technical replicate 3 → viability, normalised (%): 60.6; Call: active
NEIL3 (nei like DNA glycosylase 3) [SID405528430], technical replicate 1 → viability, normalised (%): 42.2; Call: active
NEIL3 (nei like DNA glycosylase 3) [SID405528430], technical replicate 2 → viability, normalised (%): 41.6; Call: active
NEIL3 (nei like DNA glycosylase 3) [SID405528430], technical replicate 3 → viability, normalised (%): 41.5; Call: active
POLE2 (DNA polymerase epsilon 2, accessory subunit) [SID405528244], technical replicate 1 → viability, normalised (%): 47.4; Call: active
POLE2 (DNA polymerase epsilon 2, accessory subunit) [SID405528244], technical replicate 2 → viability, normalised (%): 46.6; Call: active
POLE2 (DNA polymerase epsilon 2, accessory subunit) [SID405528244], technical replicate 3 → viability, normalised (%): 46.8; Call: active
PDE11A (phosphodiesterase 11A) [SID405526681], technical replicate 1 → viability, normalised (%): 59.8; Call: active
PDE11A (phosphodiesterase 11A) [SID405526681], technical replicate 2 → viability, normalised (%): 52.6; Call: active
PDE11A (phosphodiesterase 11A) [SID405526681], technical replicate 3 → viability, normalised (%): 45.3; Call: active
WWC2 (WW and C2 domain containing 2) [SID405526633], technical replicate 1 → viability, normalised (%): 36.7; Call: active
WWC2 (WW and C2 domain containing 2) [SID405526633], technical replicate 2 → viability, normalised (%): 41.2; Call: active
WWC2 (WW and C2 domain containing 2) [SID405526633], technical replicate 3 → viability, normalised (%): 37.3; Call: active
